Test results: publication PMC10400533, “Exploring the G-quadruplex binding and unwinding activity of the bacterial FeS helicase DinG”
The exact form of at least one protein or probe is not confirmed. Tags and fusion partners may be left off the protein sequences shown.

Target: T1, DinG helicase (Escherichia coli) (UniProt P27296)
T1 sequence (looked up, limits assumed): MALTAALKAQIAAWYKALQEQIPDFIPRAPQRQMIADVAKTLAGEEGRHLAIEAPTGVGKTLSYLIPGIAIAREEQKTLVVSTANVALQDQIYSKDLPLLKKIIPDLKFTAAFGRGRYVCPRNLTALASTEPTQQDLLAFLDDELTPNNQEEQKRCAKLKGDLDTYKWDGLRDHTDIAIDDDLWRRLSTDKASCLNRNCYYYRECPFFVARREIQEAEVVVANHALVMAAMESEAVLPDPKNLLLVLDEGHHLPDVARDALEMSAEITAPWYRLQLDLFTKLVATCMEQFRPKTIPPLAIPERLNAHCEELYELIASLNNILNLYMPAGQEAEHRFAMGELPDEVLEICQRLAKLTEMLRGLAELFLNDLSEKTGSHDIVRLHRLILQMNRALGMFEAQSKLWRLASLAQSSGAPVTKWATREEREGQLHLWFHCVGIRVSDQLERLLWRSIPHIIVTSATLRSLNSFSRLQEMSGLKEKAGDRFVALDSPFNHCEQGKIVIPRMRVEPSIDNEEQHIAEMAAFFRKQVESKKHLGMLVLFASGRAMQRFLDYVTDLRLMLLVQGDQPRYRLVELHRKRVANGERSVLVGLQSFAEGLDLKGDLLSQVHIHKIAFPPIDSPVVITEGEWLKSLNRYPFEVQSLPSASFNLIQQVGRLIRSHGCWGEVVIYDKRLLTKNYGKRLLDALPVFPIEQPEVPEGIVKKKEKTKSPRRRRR
Assay: SPR
Conditions: SPR single-cycle kinetics, 25 C, DinG immobilized, DNA 0.062-1 uM, DNA prepared in 10 mM potassium phosphate, 50 mM KCl, pH 7.5, recombinant protein, protein details: His-tag, folded or branched DNA

AGGGAGGGCGCTGGGAGGAGGG [c-KIT1]
Kd (BRACO-19): 73.9 nM
Kd (PhenDC3): 266 nM
Kd (Pyridostatin (PDS)): 98.3 nM
